Assay results

The results are deposited in PubChem (AID1224904; Broad Institute, 2016).

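293T-iDUX4 cells carrying a ZSCAN4-driven Gaussia luciferase and a tet-on Italica luciferase control; the gap between the two luminescence signals is read after 24 h. The test concentration is not given here. Percent difference between the Gaussia and Italica channels; more negative values mean more selective suppression of the DUX4 reporter, and higher values mean less activity.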

Values are in %. How 0% and 100% were set is not given here. Common to all entries: measured here: selective DUX4 reporter inhibition. Part of the compounds only, not a random draw; the main read-out is not listed here.

structure	Gaussia minus Italica difference (%)
COc1ccc2c3c([nH]c2c1)[C@H](CO)N(Cc1ccccc1)CC31CCN(C(=O)NC(C)C)CC1	-5.234
COc1ccccc1-c1ccc2c(c1)[C@@H]1[C@@H](CCN1C(=O)c1ccc3c(c1)OCO3)[C@H](CO)N2	19.4
C[C@@H]1CN([C@@H](C)CO)C(=O)c2c(c3ccccc3n2C)-c2ccccc2CO[C@H]1CN(C)Cc1ccc(Oc2ccccc2)cc1	-11.63
O=C(c1cccc(F)c1)N1CC2(C1)[C@H](c1ccccc1)[C@@H](CO)N2Cc1ccccn1	-11.44
Cc1ccc(S(=O)(=O)N2CC[C@@H]3[C@@H](CO)Nc4ccc(-c5ccccc5F)cc4[C@@H]32)cc1	-0.287
O=C(Nc1ccc(C(F)(F)F)cc1)N[C@@H]1C=C[C@@H](CC(=O)N2CCCCC2)O[C@@H]1CO	-7.627
CC(C)CC#Cc1ccc([C@@H]2[C@H](CO)N3C(=O)CN(C(=O)Nc4cc(F)ccc4F)C[C@@H]23)cc1	-20.95
O=C(C[C@H]1C[C@@H]2c3cc(NC(=O)Nc4ccc(C(F)(F)F)cc4)ccc3O[C@@H]2[C@@H](CO)O1)NC1CCCCC1	-6.152
O=S(=O)(Cc1ccccc1)N1CCCCN2[C@H](C1)[C@@H](c1ccc(-c3ccc(F)cc3)cc1)[C@@H]2CO	-18.48
COCC#Cc1ccc([C@H]2[C@H](CO)N3CCCCN(S(=O)(=O)c4ccc(OC)cc4)C[C@@H]23)cc1	-17.37
O=C(C[C@@H]1CC[C@H]2[C@@H](COC[C@@H](O)CN2Cc2cccc(C(F)(F)F)c2)O1)NCc1ccc(F)cc1	19.71
C[C@@H]1CN([C@@H](C)CO)C(=O)c2ccccc2-c2ccccc2CO[C@@H]1CN(C)C(=O)Nc1cccc(Cl)c1Cl	-10.46
O=C1CN(S(=O)(=O)c2ccccc2)C[C@H]2[C@H](c3ccc(C#CCc4ccccc4)cc3)[C@H](CO)N12	-6.694
COc1cccc(-c2ccc(C3[C@@H]4CN(S(=O)(=O)c5ccccc5C)C[C@H]3N4)cc2)c1 (stereo partly drawn)	-14.05
COc1cccc(C#Cc2ccc([C@H]3[C@H](CO)N4C(=O)CN(C(=O)c5ccccc5)C[C@@H]34)cc2)c1	1.864
COc1cccc(NC(=O)N2CC3(C2)[C@H](c2ccccc2)[C@H](CO)N3C(=O)C2CCCC2)c1	-12.62
COc1ccccc1NC(=O)N1C[C@@H]2N[C@H](C1)C2c1ccc(/C=C/c2ccccc2)cc1 (stereo partly drawn)	-9.015
COc1ccc(NC(=O)N2CCCCN3[C@H](CO)[C@H](c4ccc(-c5ccccc5F)cc4)[C@H]3C2)cc1	-7.342
COc1cccc(C(=O)Nc2ccc3c(c2)C(=O)N(C)[C@H]2CC[C@H](CC(=O)N[C@@H](C)c4ccccc4)O[C@H]2CO3)c1	2.52
COc1ccc(-c2ccc3c(c2)[C@@H]2[C@@H](CCN2S(=O)(=O)c2ccc(OC)cc2)[C@@H](CO)N3C)cc1	20.05
COc1ccc2c3c([nH]c2c1)[C@H](CO)N(Cc1ccc(Cl)cc1)CC31CCN(Cc2nccs2)CC1	-5.017
O=C(Nc1cc(F)ccc1F)N1CC(=O)N2[C@H](CO)[C@H](c3ccc(C#CC4CCCCC4)cc3)[C@@H]2C1	-10.67
COc1ccc(CN2C[C@H](C)[C@@H](OC)CN(C)C(=O)c3cc(NC(=O)c4nc5ccccc5s4)ccc3OC[C@H]2C)cc1	-11.72
COc1ccccc1CNC(=O)C[C@@H]1C[C@@H]2c3cc(NS(=O)(=O)c4ccc(F)cc4)ccc3O[C@@H]2[C@@H](CO)O1	-9.547
O=C(NCC1CC1)[C@@H]1[C@@H](CO)[C@@H]2Cn3c(ccc(C4=CCCCC4)c3=O)[C@@H]2N1Cc1ccccc1F	-2.762
O=C(Nc1ccc(F)cc1)N1CCCCN2[C@H](CO)[C@H](c3ccc(C#CC4CC4)cc3)[C@H]2C1	-7.227
CC(C)NC(=O)N1CCCCN2[C@@H](CO)[C@@H](c3ccc(C#Cc4ccccc4F)cc3)[C@@H]2C1	-1.32
OC[C@H]1[C@H](c2ccc(-c3cccc(F)c3)cc2)[C@H]2CN(CCC(F)(F)F)CCCCN21	-24.56
N#C[C@@H]1[C@H](c2ccccc2-c2ccc(F)cc2)[C@H](CO)N1c1ncc(-c2ccccc2)s1	2.922
O=C(C[C@H]1CC[C@H]2[C@@H](COC[C@H](O)CN2Cc2cccc(Cl)c2)O1)NCc1cccc(F)c1	2.486
CCN1[C@H](C(=O)NC2Cc3ccccc3C2)[C@@H](CO)[C@@H]2Cn3c(ccc(C4=CCCC4)c3=O)[C@@H]21	-9.577
Cc1ccccc1S(=O)(=O)N1CC[C@@H]2[C@@H](CO)Nc3ccc(-c4ccc(C#N)cc4)cc3[C@@H]21	-3.185
COc1ccc(C#Cc2ccc([C@@H]3[C@@H](CO)N4CCCCN(C(=O)Nc5ccccc5F)C[C@H]34)cc2)cc1	-20.55
COc1ccccc1C#Cc1ccc([C@H]2[C@@H](CO)N3CCCCN(C(=O)C4CCC4)C[C@@H]23)cc1	-17.34
Cc1cccc(-c2ccc([C@H]3[C@@H](CO)N4C(=O)CN(S(=O)(=O)c5cccc(F)c5)C[C@@H]34)cc2)c1	-7.234
O=C(Nc1cccc(F)c1)N1C[C@@H]2N[C@H](C1)C2c1ccc(-c2ccccc2F)cc1 (stereo partly drawn)	8.72
C[C@@H]1CN([C@H](C)CO)C(=O)c2c(c3ccccc3n2C)-c2ccccc2CO[C@H]1CN(C)Cc1ccc(Cl)c(Cl)c1	-23.04
O=C(Cc1ccccc1)N1CC2(C1)[C@@H](c1ccccc1)[C@H](CO)N2S(=O)(=O)Cc1ccccc1	-0.6608
N#C[C@@H]1[C@H](c2ccccc2/C=C/c2ccccc2)[C@H](CO)N1S(=O)(=O)c1ccccc1	6.361
N#Cc1cccc(-c2ccc(C3[C@@H]4CN(S(=O)(=O)c5ccccc5)C[C@H]3N4)cc2)c1 (stereo partly drawn)	-18.97
COc1ccc2c3c([nH]c2c1)[C@H](CO)N(C(=O)c1ccccc1)CC31CCN(C(=O)c2cccc(F)c2)CC1	-12.34
COc1ccc2c3c(n(C)c2c1)[C@H](CO)NCC31CCN(S(=O)(=O)c2ccc(C)cc2)CC1	-5.518
N#C[C@@H]1[C@@H](c2ccccc2C2=CCCCC2)[C@H](CO)N1C(=O)NC1CCCC1	-4.029

For reference, 4 entries once more:

{"structure": "COc1ccc(-c2ccc3c(c2)[C@@H]2[C@@H](CCN2S(=O)(=O)c2ccc(OC)cc2)[C@@H](CO)N3C)cc1", "Gaussia minus Italica difference (%)": "20.05"}
{"structure": "Cc1cccc(-c2ccc([C@H]3[C@@H](CO)N4C(=O)CN(S(=O)(=O)c5cccc(F)c5)C[C@@H]34)cc2)c1", "Gaussia minus Italica difference (%)": "-7.234"}
{"structure": "O=C(Nc1cc(F)ccc1F)N1CC(=O)N2[C@H](CO)[C@H](c3ccc(C#CC4CCCCC4)cc3)[C@@H]2C1", "Gaussia minus Italica difference (%)": "-10.67"}
{"structure": "COc1cccc(C#Cc2ccc([C@H]3[C@H](CO)N4C(=O)CN(C(=O)c5ccccc5)C[C@@H]34)cc2)c1", "Gaussia minus Italica difference (%)": "1.864"}